# Source: publication PMC4424349
# Chains of the proteins cited; added tags and fusions are not shown.
# UniProt Q8IDR3: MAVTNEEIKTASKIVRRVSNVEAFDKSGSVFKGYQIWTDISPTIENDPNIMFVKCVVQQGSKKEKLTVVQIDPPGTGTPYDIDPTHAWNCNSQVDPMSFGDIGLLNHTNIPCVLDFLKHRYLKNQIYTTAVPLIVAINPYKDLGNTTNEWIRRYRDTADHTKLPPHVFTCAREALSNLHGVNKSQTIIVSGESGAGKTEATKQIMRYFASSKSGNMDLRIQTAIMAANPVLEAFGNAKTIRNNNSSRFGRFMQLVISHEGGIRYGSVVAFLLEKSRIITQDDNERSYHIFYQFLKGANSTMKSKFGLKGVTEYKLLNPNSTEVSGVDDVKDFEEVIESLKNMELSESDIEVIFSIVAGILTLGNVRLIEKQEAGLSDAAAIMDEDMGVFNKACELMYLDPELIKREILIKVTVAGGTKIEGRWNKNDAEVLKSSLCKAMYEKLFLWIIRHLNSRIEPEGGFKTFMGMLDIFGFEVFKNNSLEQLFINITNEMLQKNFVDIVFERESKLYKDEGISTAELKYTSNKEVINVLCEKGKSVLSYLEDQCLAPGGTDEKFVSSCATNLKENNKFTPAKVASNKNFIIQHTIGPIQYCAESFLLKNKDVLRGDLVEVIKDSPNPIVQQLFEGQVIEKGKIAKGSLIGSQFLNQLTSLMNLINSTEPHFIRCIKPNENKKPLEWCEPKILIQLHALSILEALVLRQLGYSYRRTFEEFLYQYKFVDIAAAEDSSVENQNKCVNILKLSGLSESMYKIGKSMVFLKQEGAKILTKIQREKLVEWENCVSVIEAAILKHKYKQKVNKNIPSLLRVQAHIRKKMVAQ
# UniProt Q8I5I8: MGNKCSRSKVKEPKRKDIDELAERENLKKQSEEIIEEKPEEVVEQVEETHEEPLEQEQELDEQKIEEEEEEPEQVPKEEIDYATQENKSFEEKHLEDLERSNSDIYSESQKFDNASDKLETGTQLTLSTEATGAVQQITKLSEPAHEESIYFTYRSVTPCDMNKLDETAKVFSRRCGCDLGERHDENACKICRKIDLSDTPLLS
# UniProt Q8III1: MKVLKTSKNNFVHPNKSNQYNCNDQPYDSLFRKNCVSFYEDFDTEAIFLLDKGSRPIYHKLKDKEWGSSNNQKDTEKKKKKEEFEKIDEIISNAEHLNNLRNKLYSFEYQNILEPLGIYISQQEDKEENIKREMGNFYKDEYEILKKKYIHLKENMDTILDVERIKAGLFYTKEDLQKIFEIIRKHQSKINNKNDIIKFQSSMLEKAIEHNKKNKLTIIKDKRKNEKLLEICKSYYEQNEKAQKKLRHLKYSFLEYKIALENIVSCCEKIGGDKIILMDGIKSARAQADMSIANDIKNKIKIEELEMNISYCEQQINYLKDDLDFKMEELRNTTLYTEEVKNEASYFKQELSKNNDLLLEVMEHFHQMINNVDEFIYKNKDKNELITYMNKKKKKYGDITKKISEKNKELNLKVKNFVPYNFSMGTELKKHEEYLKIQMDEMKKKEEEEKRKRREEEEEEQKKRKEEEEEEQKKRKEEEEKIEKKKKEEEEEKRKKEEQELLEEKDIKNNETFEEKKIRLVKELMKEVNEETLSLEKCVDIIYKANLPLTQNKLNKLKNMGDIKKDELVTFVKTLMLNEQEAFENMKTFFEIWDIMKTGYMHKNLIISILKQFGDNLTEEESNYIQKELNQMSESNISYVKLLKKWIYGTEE
# UniProt Q8I5L6: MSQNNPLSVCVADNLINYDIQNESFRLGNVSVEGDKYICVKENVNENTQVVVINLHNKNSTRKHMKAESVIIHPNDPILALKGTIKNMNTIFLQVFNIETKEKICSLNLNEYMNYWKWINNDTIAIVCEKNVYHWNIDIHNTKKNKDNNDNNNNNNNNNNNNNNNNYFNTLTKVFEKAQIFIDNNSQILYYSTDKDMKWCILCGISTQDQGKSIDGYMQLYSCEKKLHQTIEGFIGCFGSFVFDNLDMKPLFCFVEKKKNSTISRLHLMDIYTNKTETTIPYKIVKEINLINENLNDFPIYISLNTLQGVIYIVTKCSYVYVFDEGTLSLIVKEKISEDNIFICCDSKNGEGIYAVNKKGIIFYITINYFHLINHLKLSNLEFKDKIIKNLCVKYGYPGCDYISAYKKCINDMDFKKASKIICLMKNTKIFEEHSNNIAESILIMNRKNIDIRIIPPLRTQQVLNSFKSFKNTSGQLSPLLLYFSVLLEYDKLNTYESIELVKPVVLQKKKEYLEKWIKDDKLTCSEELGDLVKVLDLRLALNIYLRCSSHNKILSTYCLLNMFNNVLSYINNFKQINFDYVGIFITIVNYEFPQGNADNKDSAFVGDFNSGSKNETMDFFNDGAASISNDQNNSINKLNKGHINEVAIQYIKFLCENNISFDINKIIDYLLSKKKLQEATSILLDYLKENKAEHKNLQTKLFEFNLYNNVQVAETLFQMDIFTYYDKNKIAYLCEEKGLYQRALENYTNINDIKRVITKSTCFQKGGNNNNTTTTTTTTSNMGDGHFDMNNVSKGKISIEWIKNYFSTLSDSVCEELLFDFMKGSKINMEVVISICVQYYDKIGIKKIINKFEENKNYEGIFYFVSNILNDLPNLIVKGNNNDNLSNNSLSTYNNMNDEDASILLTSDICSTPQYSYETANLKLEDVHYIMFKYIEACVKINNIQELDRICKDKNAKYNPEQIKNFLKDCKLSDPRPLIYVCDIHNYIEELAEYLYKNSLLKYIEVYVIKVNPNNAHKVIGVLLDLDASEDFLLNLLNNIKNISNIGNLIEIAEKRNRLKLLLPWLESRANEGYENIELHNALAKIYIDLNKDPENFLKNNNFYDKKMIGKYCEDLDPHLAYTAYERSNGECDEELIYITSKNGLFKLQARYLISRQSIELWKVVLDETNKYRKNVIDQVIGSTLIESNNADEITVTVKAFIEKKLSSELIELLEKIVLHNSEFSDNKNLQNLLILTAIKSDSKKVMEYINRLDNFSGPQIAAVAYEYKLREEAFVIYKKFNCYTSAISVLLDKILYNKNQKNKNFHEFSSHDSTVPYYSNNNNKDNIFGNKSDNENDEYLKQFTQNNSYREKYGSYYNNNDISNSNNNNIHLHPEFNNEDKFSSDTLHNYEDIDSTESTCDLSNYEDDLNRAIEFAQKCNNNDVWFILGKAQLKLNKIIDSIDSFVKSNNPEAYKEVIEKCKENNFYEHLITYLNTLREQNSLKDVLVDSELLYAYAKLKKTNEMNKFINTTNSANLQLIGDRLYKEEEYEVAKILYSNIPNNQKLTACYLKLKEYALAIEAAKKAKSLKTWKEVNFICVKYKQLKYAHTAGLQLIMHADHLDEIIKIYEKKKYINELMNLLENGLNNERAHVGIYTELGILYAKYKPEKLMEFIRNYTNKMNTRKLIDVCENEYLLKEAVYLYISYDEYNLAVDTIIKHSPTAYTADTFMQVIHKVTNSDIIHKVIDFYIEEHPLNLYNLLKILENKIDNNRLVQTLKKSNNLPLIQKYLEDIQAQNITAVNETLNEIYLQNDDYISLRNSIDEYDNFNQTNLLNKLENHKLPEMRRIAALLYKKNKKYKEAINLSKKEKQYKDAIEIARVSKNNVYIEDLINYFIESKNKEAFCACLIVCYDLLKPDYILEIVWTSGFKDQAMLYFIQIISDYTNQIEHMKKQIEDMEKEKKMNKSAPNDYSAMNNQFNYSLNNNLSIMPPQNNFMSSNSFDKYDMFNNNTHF
# Biological target: T1, PfMyoB-GFP (Plasmodium falciparum myosin B with C-terminal GFP) (Plasmodium falciparum 3D7) (UniProt Q8I465)
# T1 sequence: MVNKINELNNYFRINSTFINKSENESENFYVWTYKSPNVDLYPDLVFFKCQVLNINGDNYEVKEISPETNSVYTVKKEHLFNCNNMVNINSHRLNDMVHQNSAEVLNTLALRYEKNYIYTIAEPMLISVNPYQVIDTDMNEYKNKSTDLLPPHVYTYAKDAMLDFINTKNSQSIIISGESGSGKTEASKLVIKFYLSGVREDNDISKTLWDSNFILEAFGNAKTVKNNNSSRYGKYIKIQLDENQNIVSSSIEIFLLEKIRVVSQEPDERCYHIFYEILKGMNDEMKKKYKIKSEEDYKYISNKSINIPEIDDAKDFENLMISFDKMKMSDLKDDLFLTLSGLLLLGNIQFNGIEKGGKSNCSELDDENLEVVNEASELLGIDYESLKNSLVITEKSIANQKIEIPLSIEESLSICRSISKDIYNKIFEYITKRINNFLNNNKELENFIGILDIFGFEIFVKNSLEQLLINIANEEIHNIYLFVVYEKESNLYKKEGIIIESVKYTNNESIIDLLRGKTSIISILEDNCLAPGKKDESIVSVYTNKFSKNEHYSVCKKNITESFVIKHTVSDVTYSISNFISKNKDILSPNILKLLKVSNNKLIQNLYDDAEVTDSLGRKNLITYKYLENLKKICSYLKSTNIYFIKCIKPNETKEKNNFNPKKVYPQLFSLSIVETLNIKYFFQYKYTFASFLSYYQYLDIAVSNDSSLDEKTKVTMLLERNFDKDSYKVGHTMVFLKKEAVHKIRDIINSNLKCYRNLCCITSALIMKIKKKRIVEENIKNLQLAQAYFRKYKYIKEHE
# Experiment: affinity purification with mass spectrometry; GFP-Trap immunoprecipitates of schizont lysates, SDS-PAGE, trypsin digestion, LC-MS/MS; proteins with three or more peptides and absent from the 3D7 control
row,Substance,binding
1,"Myosin A (MyoA), endogenous untagged (from UniProt Q8IDR3 1-818)",no binding
2,SEC31,binds
3,acyl-CoA synthetase,binds
4,glideosome-associated protein 45 (GAP45) (from UniProt Q8I5I8 1-204),no binding
5,glideosome-associated protein 50 (GAP50),no binding
6,"myosin light chain B (MLC-B), PF3D7_1118700 (from UniProt Q8III1 1-652)",binds
7,polyubiquitin,binds
8,putative clathrin heavy chain (from UniProt Q8I5L6 1-1997),binds

# No constants are given. Whether binding was seen depends on the method and setting. Binding seen in cells or lysates may run through a third protein. A yes stands for co-enrichment or nearness to the bait. Other partners may have been found. A no says only that the protein was not detected with the bait. Tags and fused reporters may be left off the sequences shown.
